# Primary screen of a compound library

The values are deposited in ChEMBL (CHEMBL3988442, “University of Dundee, Small-Polar-MMV Screening Library” (2021)).

Values are the deposited “Percent Effect”, in %. How 0% and 100% were set is not recorded. Most values in the screen are low, and negative values occur. Compounds were drawn at random from those tested, without regard to their results. A dash means the value is not listed here; it may have been measured.

Mtb growth Cornell: 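Whole-cell assay for inhibitors of Mycobacterium tuberculosis growth, labelled Cornell in the record; the read-out is not stated. The concentration is filed as 10 mM, unlikely as a test dose, so the dose is not known. Higher means stronger inhibition (inferred from two other growth screens of the library). Size under these conditions: about 53,000 compounds, about 900 of them at 50% or above in at least one test.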
Mtb heat-shock: 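Assay on Mycobacterium tuberculosis, filed only as a heat shock assay from Cornell; the read-out is not stated. The concentration is filed as 10 mM, unlikely as a test dose, so the dose is not known. Higher reads as stronger inhibition (inferred: compounds with an IC50 in retests scored well above the rest). About 69,000 compounds were tested under these conditions; 1.4% (about 930) showed 50% or more at least once.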

compound,Mtb growth Cornell,Mtb heat-shock
CCN(CC)c1ccc(NC(=O)NCC2CCOC2)cn1 (stereo unspecified),11.01%,3.627%
CCSc1ccc(C(=O)N2CCC3(CCC(=O)N(C)C3)CC2)s1,-,-26.44%
CC(=O)c1cccc(OCc2cc(C(=O)N3CCCCO3)n[nH]2)c1,23.1%,-5.949%
CN(C)CC1(O)CCCN(C(=O)CCc2nc3cccnc3n2C)C1 (stereo unspecified),25.63%,-5.727%
O=C(NCCn1ccnc1)c1ccn(-c2ccccc2)n1,8.077%,-2.559%
[H][C@]12CC[C@]([H])(CN(C(=O)N(C)C)C1)N(C(=O)CCn1ccnc1CC)C2,25.61%,-19.39%
COc1cc(C(=O)NS(=O)(=O)c2cncc(Br)c2)cc(OC)c1C,-,13.2%
CCCN1CCN(C(=O)CCn2nc(C(F)(F)F)c(Br)c2C)CC1,17.02%,-15.92%
CCN(CC)S(=O)(=O)N1CCCC1C(=O)N1CCSCC1 (stereo unspecified),8.393%,-4.262%
C[C@@H]1CN(C2CCN(c3ccccc3)CC2)CC[C@@]1(O)C1CCOCC1,39.13%,0.6796%
COc1cc(N2CCC3(CC2)CN(C)C(=O)CO3)ncn1,-14.83%,-24.02%
Cc1cc(C)c(CNC(=O)NCCNc2ccccn2)c(=O)[nH]1,12.64%,-12.93%
CC(O)c1cn(Cc2ccc(Cl)cc2Cl)nn1 (stereo unspecified),12.25%,24.56%
CSCC[C@H](N)C(=O)NCc1cc2n(n1)CCCN(C1CCCCC1)C2,15.62%,25.27%
COc1ccc(CNCC2CN(C3CC3)CCO2)cc1OC (stereo unspecified),8.669%,10.4%
CC1(C)CN(CC(F)(F)F)CCN1CC(=O)N1CCCCC1,25.76%,-6.503%
CN(C)c1ncc(-c2ccc(C(N)=O)cc2)c(C2CCNC2)n1.Cl (stereo unspecified),26.94%,-15.09%
Cl.O=C(Nc1ccccn1)c1cncc(C2CCNCC2)n1,13.1%,-4.02%
O=C(O)C(F)(F)F.[H][C@@]12CCN(c3cccnc3)C[C@]1([H])CN(C(=O)c1ccc(O)cc1)C2,-52.85%,-5.404%
CCc1ncc2c(n1)CN(Cc1ncc(C(C)(C)C)o1)CC2,-2.294%,-7.469%
c1cc(CN2CCC3(CC2)COC(COCC2CC2)C3)cs1 (stereo unspecified),31.19%,3.791%
CC(C)(O)CCc1cccc(C(=O)N2CCC3(CCOCC3)CC2)c1,1.344%,-2.546%
COc1ccsc1C(=O)Nc1cc(Cl)c(=O)n(C)c1,45.42%,13.31%
CN(C)C1CCCN(C(=O)NCc2ccccc2-n2cccn2)C1 (stereo unspecified),-12.48%,-22.31%
COc1nn(C)cc1C(=O)N1CCC(c2nnc(C3CC3)o2)CC1,11.63%,23.5%
CC1(c2nccs2)CCN(C(=O)CC2CCOCC2)CC1,32.02%,14.52%
CCn1cc(CNCc2ccc(C(=O)OC)cc2)c(C)n1,-11%,-1.467%
[H][C@@]12CN(C(=O)C3CCOCC3)C[C@@]1([H])N(CC)C(=O)CO2,28.6%,6.877%
Cc1occc1CNC(=O)C1CCN(C(=O)OC(C)(C)C)C1 (stereo unspecified),-,-23.91%
CC(C)N1CCCC(C(=O)NCc2noc(Cc3ccccc3)n2)C1 (stereo unspecified),-,-24.44%
CC(C)Cc1noc(CN2CCCC(Cn3cncn3)C2)n1 (stereo unspecified),-16.72%,-1.869%
CCc1ccc(-n2nnc(C(=O)O)c2-c2ccccn2)cc1,-7.406%,15.6%
O=C(NC1CCCN(c2ccc(OC(F)F)cc2)C1)c1cnc[nH]1 (stereo unspecified),6.889%,3.488%
COc1ccc(-c2noc([C@@H](C)NC(=O)NC(C)(C)C)c2C(=O)O)cc1,-2.687%,-10.3%
CO[C@H]1CN(C(=O)OC(C)(C)C)CC1NCc1ccco1 (stereo partly specified),-1.316%,-8.711%
Cc1cc(CSCc2ccccn2)on1,-0.7669%,-3.813%
CCNCCC(Cc1ccccc1)c1ccco1 (stereo unspecified),15.24%,-14.61%
NS(=O)(=O)CC1CCN(c2ncccc2C(F)(F)F)CC1,11.73%,-8.74%
Cc1cccnc1NC(=O)NCc1ccc(N2CCNC(=O)C2)cc1,-21.61%,13.34%
Cc1oc(-c2ccsc2)nc1CNC(C)Cn1cccn1 (stereo unspecified),-59.86%,-16.19%
O=C(NCCNc1ncccn1)NCCc1c(F)cccc1F,-1.347%,0.2532%
COCc1cc(O)nc(C2CCCN(Cc3cc(OC)ccc3F)C2)n1 (stereo unspecified),3.04%,-15.93%
O=C1CCCN1CC1CN(C(=O)C2CCOCC2)Cc2nccn2C1 (stereo unspecified),14.53%,16.49%
Cc1cnc(N2CCCC3(CCCN(C)C3)C2)nc1 (stereo unspecified),42.95%,22.37%
Cc1cnn(CC2CCCN2C(=O)CCc2ccsc2)c1 (stereo unspecified),-,6.969%
O=C1CCCCN1CCC(=O)N1CCCCC1c1ccc(F)cc1 (stereo unspecified),29.4%,-17.29%
CO[C@H]1CCN(c2ccc(C)nn2)[C@H]1Cc1cnn(C)c1,10.87%,6.532%
Cc1cc(C(=O)N2CCn3cc(CN4CCCCC4)nc3C2)no1,2.842%,0.2791%
O=C(CCc1ccco1)N1CCC(Nc2cccnn2)CC1,-37.65%,7.522%
N#Cc1cn[nH]c1NCc1cc(Cl)cc(Cl)c1O,4.06%,-8.604%
CC(C)(C)[S+]([O-])CCNC(=O)c1ccc(Cl)c2cccnc12 (stereo unspecified),-78.8%,9.132%
Cc1nsc(NC(=O)N2CCN(Cc3ccccc3F)C(=O)C2)n1,-,34.97%

For reference, 5 entries once more:

compound,Mtb growth Cornell,Mtb heat-shock
CC1(C)CN(CC(F)(F)F)CCN1CC(=O)N1CCCCC1,25.76%,-6.503%
Cc1cnn(CC2CCCN2C(=O)CCc2ccsc2)c1 (stereo unspecified),-,6.969%
O=C(NC1CCCN(c2ccc(OC(F)F)cc2)C1)c1cnc[nH]1 (stereo unspecified),6.889%,3.488%
COc1ccc(-c2noc([C@@H](C)NC(=O)NC(C)(C)C)c2C(=O)O)cc1,-2.687%,-10.3%
O=C1CCCN1CC1CN(C(=O)C2CCOCC2)Cc2nccn2C1 (stereo unspecified),14.53%,16.49%